# Experimental data taken from US20020137750A1, “Amidine derivatives which are inhibitors of nitric oxide synthase” (priority 1999, published 2002).
# Where a name gives a salt, the structure may show the parent alone. Some entries share one result that the patent states for a list of compounds. For some assays here: At least one compound was matched to its structure with a doubt left.
# Experiments:
# [1] = molecular target: T1, endothelial nitric oxide synthase (Homo sapiens, UniProt P29474); test: Screen for endothelial nitric oxide synthase inhibiting activity; type: biochemical; conditions: neuronal versus endothelial NOS
# T1 construct: The enzyme is isolated from human umbilical vein endothelial cells (HUVECs); host or cells: HUVECs
# [2] = molecular target: T2, neuronal nitric oxide synthase (Rattus norvegicus, UniProt P29476); test: Screen for neuronal nitric oxide synthase inhibiting activity (3H-L-arginine to 3H-L-citrulline); type: biochemical; conditions: neuronal isoform; rat or human screen not specified; read-out: IC50 for inhibition of neuronal nitric oxide synthase
# T2 construct: The enzyme is isolated from rat hippocampus or cerebellum; from tissue; host or cells: hippocampus or cerebellum of male Sprague-Dawley rat
Compound,selectivity compared to inhibition of the endothelial isoform of the enzyme [1],IC50 [2] [µM]
"N=C(Nc1cccc(CN2CCC[C@H]2CO)c1)c1cccs1 [Example 24, N-(3-{[(2S)-2-(Hydroxymethyyl)Pyrrolidinyl]Methyl}Phenyl)-2-Thiophenecarboximidamide Dihydrochloride]",good selectivity,< 10
"N=C(Nc1ccc(C2CCCC2)c(CN2CCC[C@H]2CO)c1)c1cccs1 [Example 31, N-(4-Cyclopentyl-3-{[(2S)-2-(Hydroxymethyl)Pyrrolidinyl]Methyl}Phenyl)-2-Thiophenecarboximidamide]",good selectivity,< 10
"Cc1ccc(CN(C)CCO)cc1NC(=N)c1cccs1.Cl.Cl [Example 37, N-(5-{[(2-Hydroxyethyl)(Methyl)Amino]Methyl}-2-Methylphenyl)-2-Thiophenecarboximidamide Dihydrochloride]",good selectivity,< 10
"N=C(Nc1cccc(CN2CCC[C@@H]2CO)c1)c1cccs1 [Example 23, N-(3-{[(2R)-2-(Hydroxymethyl)Pyrrolidinyl]Methyl}Phenyl)-2-Thiophenecarboximidamide Dihydrochloride]",good selectivity,< 10
"CN(CCO)Cc1cccc(NC(=N)c2cccs2)c1.Cl.Cl [Example 5, N-(3-{[(2-Hydroxyethyl)(Methyl)Amino]Methyl}Phenyl)-2-Thiophenecarboximidamide Dihydrochloride]",good selectivity,< 10
"N=C(Nc1cccc(CN2CCC(O)CC2)c1)c1cccs1 [Example 29, N-(3-[4-Hydroxypiperidinylmethyl]Phenyl)-2-Thiophenecarboximidamide Dihydrochloride]",good selectivity,< 10
"COc1ccc(NC(=N)c2cccs2)cc1C(C)NCCO (centres unmarked) [Example 38, N-(3-{1-[(2-Hydroxyethyl)Amino]Ethyl}-4-Methoxyphenyl)-2-Thiophenecarboximidamide]",good selectivity,< 10
"CN(CCO)Cc1cc(NC(=N)c2cccs2)ccc1C1CCCC1 [Example 30, N-(4-Cyclopentyl-3-{[(2-Hydroxyethyl)(Methyl)Amino]Methyl}Phenyl)-2-Thiophenecarboximidamide]",good selectivity,< 10
"CCC(CC)Oc1ccc(NC(=N)c2cccs2)cc1CN(C)CCO.Cl.Cl [Example 12, N-(4-(1-Ethylpropoxy)-3-{[(2-Hydroxyethyl)(Methyl)Amino]Methyl}Phenyl)-2-Thiophenecarboximidamide Dihydrochloride]",good selectivity,< 10
"CCC(CC)Oc1ccc(NC(=N)c2cccs2)cc1CNCCCCO [Example 16, N-(4-(1-Ethylproloxy)-3-{[(4-Hydroxybutyl)Amino]Methyl}Phenyl)-2-Thiophenecarboximidamide Dihydrochloride]",good selectivity,< 10
"N=C(Nc1ccc(OC2CCCC2)c(CN2CCC[C@@H]2CO)c1)c1cccs1 [Example 21, N-(4-(Cyclopentyloxy)-3{[(2R)-2-(Hydroxymethyl)Pyrrolidinyl]Methyl}Phenyl)-2-Thiophenecarboximidamide]",good selectivity,< 10
"COc1ccc(NC(=N)c2cccs2)cc1CN(C)CCO.Cl.Cl [Example 3, N-(3-{[(2-Hydroxyethyl)(Methyl)Amino]Methyl}-4-Methoxyphenyl)-2-Thiophenecarboximidamide Dihydrochloride]",good selectivity,< 10
CN(CCO)Cc1cc(NC(=N)c2cccs2)ccc1OC1CCCC1 [Example 20],good selectivity,< 10
"CCCCCCN(CCO)Cc1cccc(NC(=N)c2cccs2)c1.O=C(O)C(F)(F)F.O=C(O)C(F)(F)F [Example 7, N-(3-{[Hexyl(2-Hydroxyethyl)Amino}Methyl]Phenyl)-2-Thiophenecarboximidamide Ditrifluoroacetate]",good selectivity,< 10
"CCC(CC)Oc1ccc(NC(=N)c2cccs2)cc1CNCCO.Cl.Cl [Example 13, N-(4-(1-Ethylpropoxy)-3-{[(2-Hydroxyethyl)Amino]Methyl}Phenyl)-2-Thiophenecarboximidamide Dihydrochloride]",good selectivity,< 10
"CN(CCO)Cc1cc(NC(=N)c2cccs2)ccc1Oc1ccccc1.Cl [Example 22, N-(3-{[(2-Hydroxyethyl)(Methyl)Amino]Methyl}-4-Phenoxyphenyl)-2-Thiophenecarboximidamide Hydrochloride]",good selectivity,< 10
